Laboratory results published in the supplement of paper PMC12823440, “Inhibitors supercharge kinase turnover through native proteolytic circuits” (Nature, 2025).
The list shows a part of the results. Hit calls seldom repeat between salt and free forms of one compound.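 In K562 cells expressing nanoluciferase-fused kinases, luminescence was recorded at 4 h intervals between 2 and 18 h, normalized as percent of control with DMSO at 100% and a positive control at 0%. A significant (2 sigma) signal drop marks a time point as decreased. The authors' rule for a hit is not shown and takes in more than the number of time points.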

The chains behind the UniProt entries cited, without tags or fusion partners. Where a name states a change or a piece, a line headed by the entry shows the natural chain unless it says otherwise.
UniProt P42680: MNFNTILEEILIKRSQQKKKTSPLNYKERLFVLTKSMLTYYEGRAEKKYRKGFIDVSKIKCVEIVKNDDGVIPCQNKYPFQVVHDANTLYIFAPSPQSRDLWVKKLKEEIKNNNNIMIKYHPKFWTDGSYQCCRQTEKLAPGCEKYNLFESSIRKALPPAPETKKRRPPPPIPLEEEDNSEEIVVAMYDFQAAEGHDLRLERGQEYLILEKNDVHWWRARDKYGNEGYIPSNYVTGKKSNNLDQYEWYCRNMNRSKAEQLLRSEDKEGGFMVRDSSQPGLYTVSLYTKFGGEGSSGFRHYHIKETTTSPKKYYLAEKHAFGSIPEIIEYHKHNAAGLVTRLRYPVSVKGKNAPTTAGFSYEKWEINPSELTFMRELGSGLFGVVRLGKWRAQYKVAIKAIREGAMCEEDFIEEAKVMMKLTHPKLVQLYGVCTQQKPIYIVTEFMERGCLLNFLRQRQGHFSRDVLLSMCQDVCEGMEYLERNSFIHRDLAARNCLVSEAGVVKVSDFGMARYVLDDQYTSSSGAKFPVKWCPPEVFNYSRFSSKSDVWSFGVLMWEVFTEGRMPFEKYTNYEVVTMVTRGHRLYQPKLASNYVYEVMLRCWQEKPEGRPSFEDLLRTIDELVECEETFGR
UniProt P29597: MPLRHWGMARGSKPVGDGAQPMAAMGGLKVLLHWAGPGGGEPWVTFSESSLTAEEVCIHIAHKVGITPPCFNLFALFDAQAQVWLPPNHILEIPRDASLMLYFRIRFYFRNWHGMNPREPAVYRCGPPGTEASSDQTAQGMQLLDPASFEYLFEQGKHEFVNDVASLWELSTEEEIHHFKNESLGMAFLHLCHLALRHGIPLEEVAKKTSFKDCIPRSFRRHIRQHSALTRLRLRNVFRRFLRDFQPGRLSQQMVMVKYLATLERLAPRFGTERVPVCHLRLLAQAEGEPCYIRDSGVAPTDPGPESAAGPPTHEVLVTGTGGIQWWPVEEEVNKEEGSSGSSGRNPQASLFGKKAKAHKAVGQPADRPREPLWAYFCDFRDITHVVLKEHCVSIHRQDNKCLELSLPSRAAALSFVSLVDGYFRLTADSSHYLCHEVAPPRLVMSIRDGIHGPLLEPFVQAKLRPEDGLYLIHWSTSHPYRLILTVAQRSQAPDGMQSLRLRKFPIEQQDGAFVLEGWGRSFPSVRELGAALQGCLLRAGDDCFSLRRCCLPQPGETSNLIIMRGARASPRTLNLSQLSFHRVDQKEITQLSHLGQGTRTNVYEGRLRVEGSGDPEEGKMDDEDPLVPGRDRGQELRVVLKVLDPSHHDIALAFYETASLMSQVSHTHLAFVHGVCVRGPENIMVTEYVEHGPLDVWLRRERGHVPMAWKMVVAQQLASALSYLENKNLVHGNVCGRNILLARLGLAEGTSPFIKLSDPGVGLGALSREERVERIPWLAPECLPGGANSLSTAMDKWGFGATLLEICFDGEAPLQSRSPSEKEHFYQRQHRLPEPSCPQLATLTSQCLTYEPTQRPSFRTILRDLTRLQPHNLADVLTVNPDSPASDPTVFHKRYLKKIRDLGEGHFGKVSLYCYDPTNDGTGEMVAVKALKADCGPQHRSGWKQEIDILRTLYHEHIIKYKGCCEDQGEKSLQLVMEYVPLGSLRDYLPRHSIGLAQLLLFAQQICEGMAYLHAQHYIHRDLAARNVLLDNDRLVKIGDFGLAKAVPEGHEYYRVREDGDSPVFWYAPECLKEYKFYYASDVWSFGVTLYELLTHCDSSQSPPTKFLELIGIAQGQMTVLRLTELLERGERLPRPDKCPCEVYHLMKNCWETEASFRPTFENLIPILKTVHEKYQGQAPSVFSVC
UniProt Q6PHR2: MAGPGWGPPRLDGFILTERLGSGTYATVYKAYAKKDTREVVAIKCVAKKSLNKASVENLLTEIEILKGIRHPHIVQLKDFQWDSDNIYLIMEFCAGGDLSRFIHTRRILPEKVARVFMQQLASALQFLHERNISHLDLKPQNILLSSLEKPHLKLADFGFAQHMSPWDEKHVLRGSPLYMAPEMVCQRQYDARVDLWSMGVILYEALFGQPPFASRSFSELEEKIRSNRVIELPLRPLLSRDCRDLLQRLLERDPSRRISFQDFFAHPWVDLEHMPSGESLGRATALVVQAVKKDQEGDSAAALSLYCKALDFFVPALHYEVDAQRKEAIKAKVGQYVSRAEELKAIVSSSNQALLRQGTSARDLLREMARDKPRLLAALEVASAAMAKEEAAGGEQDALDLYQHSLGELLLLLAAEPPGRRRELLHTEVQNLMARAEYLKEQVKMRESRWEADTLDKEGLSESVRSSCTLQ
UniProt P07947, whole entry, looked up: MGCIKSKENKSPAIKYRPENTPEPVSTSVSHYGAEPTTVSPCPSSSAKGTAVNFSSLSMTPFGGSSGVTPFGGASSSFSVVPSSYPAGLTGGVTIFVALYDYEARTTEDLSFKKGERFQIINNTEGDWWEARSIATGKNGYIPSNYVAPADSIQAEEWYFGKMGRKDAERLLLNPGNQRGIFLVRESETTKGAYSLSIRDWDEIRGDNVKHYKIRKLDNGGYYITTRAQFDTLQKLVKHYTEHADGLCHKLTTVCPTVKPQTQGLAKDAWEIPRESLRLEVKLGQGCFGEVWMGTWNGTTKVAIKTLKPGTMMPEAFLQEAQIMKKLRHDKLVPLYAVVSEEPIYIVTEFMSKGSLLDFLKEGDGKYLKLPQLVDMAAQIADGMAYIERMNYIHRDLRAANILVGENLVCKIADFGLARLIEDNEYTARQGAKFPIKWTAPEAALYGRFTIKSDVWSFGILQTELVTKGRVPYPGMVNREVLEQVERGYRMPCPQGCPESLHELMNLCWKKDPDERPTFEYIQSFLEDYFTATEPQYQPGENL
UniProt P43403: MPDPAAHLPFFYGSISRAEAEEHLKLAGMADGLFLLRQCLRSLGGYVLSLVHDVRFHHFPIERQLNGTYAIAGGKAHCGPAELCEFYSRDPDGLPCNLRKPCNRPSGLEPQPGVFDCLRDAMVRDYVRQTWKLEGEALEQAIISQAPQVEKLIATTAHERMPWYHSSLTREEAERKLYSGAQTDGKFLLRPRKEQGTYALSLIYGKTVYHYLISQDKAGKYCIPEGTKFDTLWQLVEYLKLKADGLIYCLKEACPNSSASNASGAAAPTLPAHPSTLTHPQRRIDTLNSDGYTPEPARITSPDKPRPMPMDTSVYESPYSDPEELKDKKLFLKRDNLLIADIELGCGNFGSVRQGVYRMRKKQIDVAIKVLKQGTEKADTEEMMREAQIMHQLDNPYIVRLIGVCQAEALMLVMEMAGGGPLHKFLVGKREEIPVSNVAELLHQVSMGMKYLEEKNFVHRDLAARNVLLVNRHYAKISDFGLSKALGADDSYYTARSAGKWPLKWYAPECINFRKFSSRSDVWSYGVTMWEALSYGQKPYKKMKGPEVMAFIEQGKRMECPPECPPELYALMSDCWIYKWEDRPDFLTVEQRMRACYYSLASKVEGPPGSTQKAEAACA
UniProt P31749: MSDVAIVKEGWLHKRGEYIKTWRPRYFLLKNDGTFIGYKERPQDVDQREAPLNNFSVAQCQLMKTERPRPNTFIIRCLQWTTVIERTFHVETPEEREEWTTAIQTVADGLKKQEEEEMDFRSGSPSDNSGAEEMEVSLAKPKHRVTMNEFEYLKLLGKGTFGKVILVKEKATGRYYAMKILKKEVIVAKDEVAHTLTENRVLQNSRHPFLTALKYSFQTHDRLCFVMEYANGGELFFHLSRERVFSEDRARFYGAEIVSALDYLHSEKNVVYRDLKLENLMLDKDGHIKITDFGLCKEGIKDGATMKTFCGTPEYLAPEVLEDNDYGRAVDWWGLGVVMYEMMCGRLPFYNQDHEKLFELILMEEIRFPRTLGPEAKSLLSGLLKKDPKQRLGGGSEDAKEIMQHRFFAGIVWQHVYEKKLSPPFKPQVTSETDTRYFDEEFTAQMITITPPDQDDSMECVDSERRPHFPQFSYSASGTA
UniProt P10398: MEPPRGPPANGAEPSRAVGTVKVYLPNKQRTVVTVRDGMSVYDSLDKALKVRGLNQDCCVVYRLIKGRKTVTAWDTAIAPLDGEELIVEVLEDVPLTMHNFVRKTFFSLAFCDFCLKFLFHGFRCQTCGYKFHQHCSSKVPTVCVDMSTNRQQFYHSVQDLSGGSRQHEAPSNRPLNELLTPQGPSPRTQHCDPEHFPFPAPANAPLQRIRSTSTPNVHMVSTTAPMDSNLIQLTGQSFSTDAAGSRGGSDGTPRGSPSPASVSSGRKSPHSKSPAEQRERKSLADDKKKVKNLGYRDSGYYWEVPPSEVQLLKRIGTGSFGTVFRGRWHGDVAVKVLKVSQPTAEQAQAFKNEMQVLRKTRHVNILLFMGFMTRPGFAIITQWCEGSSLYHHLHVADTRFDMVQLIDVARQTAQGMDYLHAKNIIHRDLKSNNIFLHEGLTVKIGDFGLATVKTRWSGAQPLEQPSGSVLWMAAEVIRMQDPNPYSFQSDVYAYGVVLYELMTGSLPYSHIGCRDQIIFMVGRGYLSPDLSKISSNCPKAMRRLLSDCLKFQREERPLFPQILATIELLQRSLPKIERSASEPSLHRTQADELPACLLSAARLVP
UniProt O14965: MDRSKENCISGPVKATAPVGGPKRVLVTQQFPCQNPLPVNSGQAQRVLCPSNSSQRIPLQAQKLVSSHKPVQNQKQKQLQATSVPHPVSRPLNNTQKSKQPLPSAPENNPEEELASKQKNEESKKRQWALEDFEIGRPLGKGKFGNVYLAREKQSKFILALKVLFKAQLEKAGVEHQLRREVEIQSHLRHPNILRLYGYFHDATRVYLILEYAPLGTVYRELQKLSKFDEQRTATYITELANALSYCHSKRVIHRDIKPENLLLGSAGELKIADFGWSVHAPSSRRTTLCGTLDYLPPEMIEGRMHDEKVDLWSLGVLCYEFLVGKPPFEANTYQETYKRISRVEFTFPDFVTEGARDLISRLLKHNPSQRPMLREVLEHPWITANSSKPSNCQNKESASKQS
UniProt Q9UQB9: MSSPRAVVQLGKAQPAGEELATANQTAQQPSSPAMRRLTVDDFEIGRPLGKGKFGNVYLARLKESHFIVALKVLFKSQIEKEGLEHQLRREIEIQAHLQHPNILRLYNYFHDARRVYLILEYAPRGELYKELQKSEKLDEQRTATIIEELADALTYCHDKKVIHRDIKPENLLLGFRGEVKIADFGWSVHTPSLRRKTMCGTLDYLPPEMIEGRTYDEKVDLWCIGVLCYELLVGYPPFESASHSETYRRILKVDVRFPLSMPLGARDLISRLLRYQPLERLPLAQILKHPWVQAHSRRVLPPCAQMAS
UniProt P51451: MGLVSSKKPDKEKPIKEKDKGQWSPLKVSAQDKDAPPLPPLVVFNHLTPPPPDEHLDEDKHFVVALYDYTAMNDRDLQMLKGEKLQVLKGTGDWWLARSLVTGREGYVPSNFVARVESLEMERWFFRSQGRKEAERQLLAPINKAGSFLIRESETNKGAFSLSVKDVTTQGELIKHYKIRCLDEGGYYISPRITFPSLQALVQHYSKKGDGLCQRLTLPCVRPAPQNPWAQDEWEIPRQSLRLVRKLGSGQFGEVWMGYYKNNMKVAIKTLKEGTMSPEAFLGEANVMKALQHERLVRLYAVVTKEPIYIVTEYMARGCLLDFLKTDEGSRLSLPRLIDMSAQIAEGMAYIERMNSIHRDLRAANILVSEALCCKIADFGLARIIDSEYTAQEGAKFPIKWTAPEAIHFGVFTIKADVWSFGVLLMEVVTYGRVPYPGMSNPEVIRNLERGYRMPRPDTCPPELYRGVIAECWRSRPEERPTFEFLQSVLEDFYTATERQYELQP
UniProt P51813: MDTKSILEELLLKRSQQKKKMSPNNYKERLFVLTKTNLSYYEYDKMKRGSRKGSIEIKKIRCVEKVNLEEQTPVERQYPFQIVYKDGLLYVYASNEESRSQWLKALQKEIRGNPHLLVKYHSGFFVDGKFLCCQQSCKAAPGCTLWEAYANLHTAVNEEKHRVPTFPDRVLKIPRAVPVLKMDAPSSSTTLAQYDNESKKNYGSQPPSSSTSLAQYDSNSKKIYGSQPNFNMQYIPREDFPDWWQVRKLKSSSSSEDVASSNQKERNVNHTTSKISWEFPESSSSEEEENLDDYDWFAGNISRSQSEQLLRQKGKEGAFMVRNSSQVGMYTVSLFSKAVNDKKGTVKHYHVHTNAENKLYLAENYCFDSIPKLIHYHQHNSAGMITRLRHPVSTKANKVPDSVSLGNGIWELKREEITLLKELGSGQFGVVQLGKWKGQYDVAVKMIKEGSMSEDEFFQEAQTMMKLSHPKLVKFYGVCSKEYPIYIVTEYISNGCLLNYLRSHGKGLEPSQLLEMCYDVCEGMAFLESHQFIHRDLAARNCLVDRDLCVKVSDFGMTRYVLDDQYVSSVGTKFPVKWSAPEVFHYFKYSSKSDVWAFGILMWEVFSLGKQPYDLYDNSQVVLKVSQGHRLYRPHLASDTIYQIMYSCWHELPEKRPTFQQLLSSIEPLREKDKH

How the values were obtained:
Conditions in all cases: K562; 2-18 h
STK38 = STK38 (UniProt Q15208); experiment: kinase-Nluc reporter destabilization hit call (1 = scored as downregulated) (binary); higher = compound decreases kinase abundance
SYK = SYK (UniProt P43405); experiment: as above
TEC = TEC (UniProt P42680); experiment: as above
TYK2 = TYK2 (UniProt P29597); experiment: as above
ULK3 = ULK3 (UniProt Q6PHR2); experiment: as above
YES1 = YES1 (UniProt P07947); experiment: as above
ZAK = ZAK (UniProt Q9NYL2); experiment: as above
ZAP70 = ZAP70 (UniProt P43403); experiment: as above
ABL1 = ABL1 (UniProt P00519); experiment: number of time points (of 5) at which kinase-Nluc abundance scored as decreased, DMSO-normalised (count); higher = more persistent destabilization
AKT1 = AKT1 (UniProt P31749); experiment: as above
ALK = ALK (UniProt Q9UM73); experiment: as above
ARAF = ARAF (UniProt P10398); experiment: as above
AURKA = AURKA (UniProt O14965); experiment: as above
AURKB = AURKB (UniProt Q96GD4); experiment: as above
AURKC = AURKC (UniProt Q9UQB9); experiment: as above
BLK = BLK (UniProt P51451); experiment: as above
BMX = BMX (UniProt P51813); experiment: as above
BRAF = BRAF (UniProt P15056); experiment: as above
BRAF_V600E = experiment: as above
BTK = BTK (UniProt Q06187); experiment: as above

SMILES | kinase-Nluc reporter destabilization hit call (STK38) | kinase-Nluc reporter destabilization hit call (SYK) | kinase-Nluc reporter destabilization hit call (TEC) | kinase-Nluc reporter destabilization hit call (TYK2) | kinase-Nluc reporter destabilization hit call (ULK3) | kinase-Nluc reporter destabilization hit call (YES1) | kinase-Nluc reporter destabilization hit call (ZAK) | kinase-Nluc reporter destabilization hit call (ZAP70) | number of time points (ABL1) | number of time points (AKT1) | number of time points (ALK) | number of time points (ARAF) | number of time points (AURKA) | number of time points (AURKB) | number of time points (AURKC) | number of time points (BLK) | number of time points (BMX) | number of time points (BRAF) | number of time points (BRAF_V600E) | number of time points (BTK)
Cc1cc(CSc2ccccc2C(=O)NCCNc2ccc(C(F)(F)F)cc2[N+](=O)[O-])on1 (10 µM) | inactive: 0 | inactive: 0 | inactive: 0 | inactive: 0 | inactive: 0 | inactive: 0 | inactive: 0 | inactive: 0 | 0 | 0 | 0 | 0 | 0 | 0 | 0 | 0 | 0 | 0 | 0 | 0
COc1c(O)cc2oc(-c3ccc(O)cc3)cc(=O)c2c1O [Hispidulin] (10 µM) | inactive: 0 | inactive: 0 | inactive: 0 | inactive: 0 | inactive: 0 | inactive: 0 | inactive: 0 | inactive: 0 | 0 | 0 | 0 | 0 | 0 | 0 | 0 | 0 | 0 | 0 | 0 | 0
C=CC(=O)Nc1cccc(Oc2nc(Nc3ccc(N4CCN(C)CC4)c(F)c3)nc3[nH]ccc23)c1 [Avitinib (maleate)] (2.5 µM) | inactive: 0 | inactive: 0 | inactive: 0 | inactive: 0 | inactive: 0 | inactive: 0 | inactive: 0 | inactive: 0 | 1 | 0 | 0 | 0 | 0 | 0 | 0 | 0 | 0 | 0 | 0 | 0
Cc1ccc(-n2nc(C(C)(C)C)cc2NC(=O)Nc2ccc(OCCN3CCOCC3)cc2)cc1 (10 µM) | inactive: 0 | inactive: 0 | inactive: 0 | inactive: 0 | inactive: 0 | inactive: 0 | inactive: 0 | inactive: 0 | 0 | 0 | 0 | 0 | 0 | 0 | 0 | 0 | 0 | 0 | 0 | 0
Cc1nn(C)cc1-c1nc2c(N3CCN(Cc4ccc(Cl)cc4)CC3)c(Cl)cnc2[nH]1 (10 µM) | inactive: 0 | inactive: 0 | inactive: 0 | inactive: 0 | inactive: 0 | inactive: 0 | inactive: 0 | inactive: 0 | 0 | 0 | 0 | 0 | 0 | 0 | 0 | 0 | 0 | 0 | 0 | 0
O=c1cc(N2CCOCC2)oc2c(-c3ccc4c(c3)OCCO4)csc12 (2.5 µM) | inactive: 0 | inactive: 0 | inactive: 0 | inactive: 0 | inactive: 0 | inactive: 0 | inactive: 0 | inactive: 0 | 0 | 0 | 0 | 0 | 0 | 0 | 0 | 0 | 0 | 0 | 0 | 0
CNC(=O)c1cc2c(Oc3ccc(NC(=O)C4(C(=O)Nc5ccc(F)cc5)CC4)cc3)ccnc2cc1OC (2.5 µM) | inactive: 0 | inactive: 0 | inactive: 0 | inactive: 0 | inactive: 0 | inactive: 0 | inactive: 0 | inactive: 0 | 3 | 0 | 2 | 0 | 2 | 0 | 0 | 2 | 2 | 0 | 3 | 0
CCN(CC)CCCC(C)Nc1nc(C)cc(Nc2ccc3nc(C)cc(N)c3c2)n1 (stereo not given) (10 µM) | inactive: 0 | inactive: 0 | inactive: 0 | inactive: 0 | inactive: 0 | inactive: 0 | inactive: 0 | inactive: 0 | 0 | 0 | 0 | 0 | 0 | 0 | 0 | 0 | 0 | 0 | 0 | 0
O=C(O)c1ccc(/C=C/S(=O)(=O)Cc2ccc(Cl)cc2)cc1 [Recilisib] (10 µM) | inactive: 0 | inactive: 0 | inactive: 0 | inactive: 0 | inactive: 0 | inactive: 0 | inactive: 0 | inactive: 0 | 0 | 0 | 0 | 0 | 0 | 0 | 0 | 0 | 0 | 0 | 0 | 0
COc1cc2ncnc(Nc3ccc(O)c(Br)c3)c2cc1OC (10 µM) | inactive: 0 | inactive: 0 | inactive: 0 | inactive: 0 | inactive: 0 | inactive: 0 | inactive: 0 | inactive: 0 | 0 | 0 | 0 | 0 | 0 | 0 | 0 | 0 | 0 | 0 | 0 | 0
CC(Sc1nc2c(cnn2-c2cccc(Cl)c2)c(=O)[nH]1)C(N)=O (stereo not given) (10 µM) | inactive: 0 | inactive: 0 | inactive: 0 | inactive: 0 | inactive: 0 | inactive: 0 | inactive: 0 | inactive: 0 | 0 | 0 | 0 | 0 | 0 | 0 | 0 | 0 | 0 | 0 | 1 | 0
COc1ccc2c(Oc3ccc4c(C(=O)Nc5ccccc5N)cccc4c3)ccnc2c1 [Chiauranib] (10 µM) | inactive: 0 | inactive: 0 | inactive: 0 | inactive: 0 | inactive: 0 | inactive: 0 | inactive: 0 | inactive: 0 | 4 | 0 | 3 | 0 | 0 | 4 | 0 | 2 | 0 | 0 | 0 | 0
NC1(C(=O)NCCCn2cc(-c3ccc(OC(F)(F)F)cc3)c3cc(CN4CCN(Cc5c(Cl)cccc5Cl)CC4)ccc32)CCNCC1 (2.5 µM) | inactive: 0 | inactive: 0 | inactive: 0 | inactive: 0 | inactive: 0 | inactive: 0 | inactive: 0 | inactive: 0 | 0 | 0 | 0 | 0 | 2 | 0 | 0 | 1 | 0 | 0 | 1 | 0
CCCCCC(=O)N[C@@H](Cc1ccc(O)cc1)C(=O)OC (10 µM) | inactive: 0 | inactive: 0 | inactive: 0 | inactive: 0 | inactive: 0 | inactive: 0 | inactive: 0 | inactive: 0 | 0 | 0 | 0 | 0 | 0 | 0 | 0 | 0 | 0 | 0 | 0 | 0
COc1ccc(-c2cc(=O)c3c(OC)cc(OC)c(OC)c3o2)cc1 [6-Demethoxytangeretin] (10 µM) | inactive: 0 | inactive: 0 | inactive: 0 | inactive: 0 | inactive: 0 | inactive: 0 | inactive: 0 | inactive: 0 | 0 | 0 | 0 | 0 | 0 | 0 | 0 | 0 | 0 | 0 | 0 | 0
O=Nc1c(-c2c(O)[nH]c3cc(Br)ccc23)[nH]c2ccccc12 [GSK 3 Inhibitor IX] (2.5 µM) | inactive: 0 | inactive: 0 | inactive: 0 | inactive: 0 | inactive: 0 | inactive: 0 | inactive: 0 | inactive: 0 | 0 | 0 | 0 | 0 | 4 | 0 | 0 | 0 | 0 | 0 | 0 | 0
COc1cc2ncnc(Oc3ccc(CC(=O)Nc4cnn(C(C)C)c4)cc3)c2cc1OC (10 µM) | inactive: 0 | inactive: 0 | inactive: 0 | inactive: 0 | inactive: 0 | inactive: 0 | inactive: 0 | inactive: 0 | 1 | 0 | 0 | 0 | 0 | 0 | 0 | 0 | 0 | 0 | 0 | 0
COc1ccc(Nc2ncc(C(F)(F)F)c(NC3CC3)n2)cc1OC (10 µM) | inactive: 0 | inactive: 0 | inactive: 0 | inactive: 0 | inactive: 0 | inactive: 0 | inactive: 0 | inactive: 0 | 4 | 0 | 1 | 0 | 1 | 0 | 0 | 3 | 0 | 0 | 3 | 0

An excerpt from above in order of SMILES length, descending.
SMILES | kinase-Nluc reporter destabilization hit call (STK38) | kinase-Nluc reporter destabilization hit call (SYK) | kinase-Nluc reporter destabilization hit call (TEC) | kinase-Nluc reporter destabilization hit call (TYK2) | kinase-Nluc reporter destabilization hit call (ULK3) | kinase-Nluc reporter destabilization hit call (YES1) | kinase-Nluc reporter destabilization hit call (ZAK) | kinase-Nluc reporter destabilization hit call (ZAP70) | number of time points (ABL1) | number of time points (AKT1) | number of time points (ALK) | number of time points (ARAF) | number of time points (AURKA) | number of time points (AURKB) | number of time points (AURKC) | number of time points (BLK) | number of time points (BMX) | number of time points (BRAF) | number of time points (BRAF_V600E) | number of time points (BTK)
COc1ccc2c(Oc3ccc4c(C(=O)Nc5ccccc5N)cccc4c3)ccnc2c1 [Chiauranib] (10 µM) | inactive: 0 | inactive: 0 | inactive: 0 | inactive: 0 | inactive: 0 | inactive: 0 | inactive: 0 | inactive: 0 | 4 | 0 | 3 | 0 | 0 | 4 | 0 | 2 | 0 | 0 | 0 | 0
O=c1cc(N2CCOCC2)oc2c(-c3ccc4c(c3)OCCO4)csc12 (2.5 µM) | inactive: 0 | inactive: 0 | inactive: 0 | inactive: 0 | inactive: 0 | inactive: 0 | inactive: 0 | inactive: 0 | 0 | 0 | 0 | 0 | 0 | 0 | 0 | 0 | 0 | 0 | 0 | 0
COc1ccc(Nc2ncc(C(F)(F)F)c(NC3CC3)n2)cc1OC (10 µM) | inactive: 0 | inactive: 0 | inactive: 0 | inactive: 0 | inactive: 0 | inactive: 0 | inactive: 0 | inactive: 0 | 4 | 0 | 1 | 0 | 1 | 0 | 0 | 3 | 0 | 0 | 3 | 0
